Source: the supplement of paper PMC11006884
The list shows a part of the results, in another mix than the full data. Single values of this set are uncertain.

Protein sequences, listed by entry. Tags and fused reporters are not part of them. Lines headed by an entry give the natural chain unless they say otherwise; changes in a name come on top.
UniProt P00505: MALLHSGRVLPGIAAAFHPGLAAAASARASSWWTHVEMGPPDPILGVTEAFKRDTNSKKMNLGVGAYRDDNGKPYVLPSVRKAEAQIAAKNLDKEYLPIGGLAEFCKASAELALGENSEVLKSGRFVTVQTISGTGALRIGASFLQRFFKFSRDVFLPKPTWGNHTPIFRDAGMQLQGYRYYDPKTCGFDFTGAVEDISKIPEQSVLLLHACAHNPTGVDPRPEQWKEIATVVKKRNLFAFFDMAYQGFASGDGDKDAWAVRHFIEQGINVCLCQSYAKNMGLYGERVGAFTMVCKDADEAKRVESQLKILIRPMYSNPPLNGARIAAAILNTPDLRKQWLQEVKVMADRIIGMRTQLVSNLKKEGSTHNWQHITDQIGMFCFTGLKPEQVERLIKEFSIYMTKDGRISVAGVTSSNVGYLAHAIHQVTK
UniProt O96013: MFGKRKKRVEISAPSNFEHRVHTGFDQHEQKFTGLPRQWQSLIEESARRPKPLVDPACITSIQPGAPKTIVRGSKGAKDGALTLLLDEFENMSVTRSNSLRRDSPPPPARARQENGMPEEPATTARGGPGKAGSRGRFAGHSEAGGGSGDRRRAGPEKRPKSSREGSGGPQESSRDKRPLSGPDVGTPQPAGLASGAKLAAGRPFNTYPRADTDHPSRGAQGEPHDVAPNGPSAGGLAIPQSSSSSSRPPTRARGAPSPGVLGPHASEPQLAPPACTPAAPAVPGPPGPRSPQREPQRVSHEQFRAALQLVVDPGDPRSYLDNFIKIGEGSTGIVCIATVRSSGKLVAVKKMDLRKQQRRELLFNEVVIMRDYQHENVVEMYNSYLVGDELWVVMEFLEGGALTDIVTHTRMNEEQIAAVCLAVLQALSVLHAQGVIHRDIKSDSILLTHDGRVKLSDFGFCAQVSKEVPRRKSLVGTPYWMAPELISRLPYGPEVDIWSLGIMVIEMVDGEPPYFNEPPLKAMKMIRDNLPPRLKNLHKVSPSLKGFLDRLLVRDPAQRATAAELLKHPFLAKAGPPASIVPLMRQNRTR
UniProt O95394: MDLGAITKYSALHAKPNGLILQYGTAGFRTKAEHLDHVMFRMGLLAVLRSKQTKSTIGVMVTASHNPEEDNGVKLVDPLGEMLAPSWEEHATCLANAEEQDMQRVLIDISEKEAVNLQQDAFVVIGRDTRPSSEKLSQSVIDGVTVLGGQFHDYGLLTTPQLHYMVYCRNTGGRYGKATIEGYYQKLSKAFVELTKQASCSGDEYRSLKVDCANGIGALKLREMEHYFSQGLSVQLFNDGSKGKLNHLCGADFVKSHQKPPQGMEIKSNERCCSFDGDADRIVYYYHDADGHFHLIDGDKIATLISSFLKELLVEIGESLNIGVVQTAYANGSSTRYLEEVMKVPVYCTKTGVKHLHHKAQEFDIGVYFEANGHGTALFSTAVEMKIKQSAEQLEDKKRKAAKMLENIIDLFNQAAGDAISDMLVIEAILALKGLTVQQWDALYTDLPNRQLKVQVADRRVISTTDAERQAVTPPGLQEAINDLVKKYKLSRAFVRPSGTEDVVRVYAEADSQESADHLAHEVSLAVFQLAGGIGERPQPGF
UniProt P07437, whole entry, looked up: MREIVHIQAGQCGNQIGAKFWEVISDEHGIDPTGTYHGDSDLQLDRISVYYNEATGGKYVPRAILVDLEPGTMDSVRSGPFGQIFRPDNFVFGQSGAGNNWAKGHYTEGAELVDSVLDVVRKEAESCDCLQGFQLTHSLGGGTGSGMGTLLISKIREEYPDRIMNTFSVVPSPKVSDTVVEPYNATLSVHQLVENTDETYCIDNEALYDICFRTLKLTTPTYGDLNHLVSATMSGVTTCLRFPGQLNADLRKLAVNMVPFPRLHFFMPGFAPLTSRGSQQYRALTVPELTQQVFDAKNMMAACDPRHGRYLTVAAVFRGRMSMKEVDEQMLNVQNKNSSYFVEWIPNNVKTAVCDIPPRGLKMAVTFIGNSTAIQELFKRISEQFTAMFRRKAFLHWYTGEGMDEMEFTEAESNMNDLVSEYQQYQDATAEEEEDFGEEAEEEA
UniProt O95347, whole entry, looked up: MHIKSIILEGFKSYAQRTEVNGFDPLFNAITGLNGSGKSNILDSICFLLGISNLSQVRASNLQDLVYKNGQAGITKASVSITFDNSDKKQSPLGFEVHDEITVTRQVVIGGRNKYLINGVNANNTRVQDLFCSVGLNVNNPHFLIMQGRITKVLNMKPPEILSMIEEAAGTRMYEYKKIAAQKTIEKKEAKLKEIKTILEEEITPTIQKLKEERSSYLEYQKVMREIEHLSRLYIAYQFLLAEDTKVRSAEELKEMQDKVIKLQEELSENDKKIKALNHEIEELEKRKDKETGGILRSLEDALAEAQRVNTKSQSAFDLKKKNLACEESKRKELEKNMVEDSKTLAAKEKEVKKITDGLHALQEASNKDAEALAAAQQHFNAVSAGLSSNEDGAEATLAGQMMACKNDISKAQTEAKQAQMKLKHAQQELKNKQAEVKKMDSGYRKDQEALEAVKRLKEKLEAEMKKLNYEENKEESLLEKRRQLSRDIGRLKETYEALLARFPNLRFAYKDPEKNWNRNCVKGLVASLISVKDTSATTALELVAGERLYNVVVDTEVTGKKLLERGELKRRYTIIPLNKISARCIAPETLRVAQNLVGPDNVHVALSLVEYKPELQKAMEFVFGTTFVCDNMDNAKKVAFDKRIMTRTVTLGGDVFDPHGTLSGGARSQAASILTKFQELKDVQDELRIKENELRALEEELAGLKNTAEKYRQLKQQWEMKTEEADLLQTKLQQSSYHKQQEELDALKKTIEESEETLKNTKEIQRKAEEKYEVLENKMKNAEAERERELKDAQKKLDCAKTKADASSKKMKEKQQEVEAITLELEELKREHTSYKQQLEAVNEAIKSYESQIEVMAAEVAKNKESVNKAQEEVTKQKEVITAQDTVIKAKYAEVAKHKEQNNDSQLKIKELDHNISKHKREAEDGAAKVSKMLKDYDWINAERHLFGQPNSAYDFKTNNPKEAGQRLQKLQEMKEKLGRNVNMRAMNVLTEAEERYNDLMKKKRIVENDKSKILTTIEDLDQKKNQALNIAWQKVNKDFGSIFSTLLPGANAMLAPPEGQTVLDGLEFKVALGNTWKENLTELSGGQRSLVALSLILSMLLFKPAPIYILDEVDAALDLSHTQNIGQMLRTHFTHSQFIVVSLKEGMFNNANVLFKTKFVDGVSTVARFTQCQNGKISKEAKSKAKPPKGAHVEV
UniProt P06733, whole entry, looked up: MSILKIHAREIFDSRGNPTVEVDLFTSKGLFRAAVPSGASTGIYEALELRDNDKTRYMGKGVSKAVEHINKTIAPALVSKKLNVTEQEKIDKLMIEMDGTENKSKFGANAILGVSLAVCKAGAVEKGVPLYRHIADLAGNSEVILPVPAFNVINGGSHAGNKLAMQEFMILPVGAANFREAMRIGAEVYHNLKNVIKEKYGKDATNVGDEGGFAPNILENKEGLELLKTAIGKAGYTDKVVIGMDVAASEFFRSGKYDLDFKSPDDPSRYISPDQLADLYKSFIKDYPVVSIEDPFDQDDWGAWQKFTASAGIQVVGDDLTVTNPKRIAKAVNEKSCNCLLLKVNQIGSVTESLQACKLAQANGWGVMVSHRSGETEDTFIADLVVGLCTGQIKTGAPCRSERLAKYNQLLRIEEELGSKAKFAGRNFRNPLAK
UniProt O95456: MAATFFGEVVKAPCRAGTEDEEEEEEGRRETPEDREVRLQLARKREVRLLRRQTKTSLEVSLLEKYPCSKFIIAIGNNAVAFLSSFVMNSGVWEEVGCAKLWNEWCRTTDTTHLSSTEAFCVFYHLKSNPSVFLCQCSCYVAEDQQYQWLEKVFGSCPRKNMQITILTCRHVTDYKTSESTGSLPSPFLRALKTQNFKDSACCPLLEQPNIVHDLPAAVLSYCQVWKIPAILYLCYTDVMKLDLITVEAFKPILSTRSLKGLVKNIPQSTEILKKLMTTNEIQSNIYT
UniProt O95785: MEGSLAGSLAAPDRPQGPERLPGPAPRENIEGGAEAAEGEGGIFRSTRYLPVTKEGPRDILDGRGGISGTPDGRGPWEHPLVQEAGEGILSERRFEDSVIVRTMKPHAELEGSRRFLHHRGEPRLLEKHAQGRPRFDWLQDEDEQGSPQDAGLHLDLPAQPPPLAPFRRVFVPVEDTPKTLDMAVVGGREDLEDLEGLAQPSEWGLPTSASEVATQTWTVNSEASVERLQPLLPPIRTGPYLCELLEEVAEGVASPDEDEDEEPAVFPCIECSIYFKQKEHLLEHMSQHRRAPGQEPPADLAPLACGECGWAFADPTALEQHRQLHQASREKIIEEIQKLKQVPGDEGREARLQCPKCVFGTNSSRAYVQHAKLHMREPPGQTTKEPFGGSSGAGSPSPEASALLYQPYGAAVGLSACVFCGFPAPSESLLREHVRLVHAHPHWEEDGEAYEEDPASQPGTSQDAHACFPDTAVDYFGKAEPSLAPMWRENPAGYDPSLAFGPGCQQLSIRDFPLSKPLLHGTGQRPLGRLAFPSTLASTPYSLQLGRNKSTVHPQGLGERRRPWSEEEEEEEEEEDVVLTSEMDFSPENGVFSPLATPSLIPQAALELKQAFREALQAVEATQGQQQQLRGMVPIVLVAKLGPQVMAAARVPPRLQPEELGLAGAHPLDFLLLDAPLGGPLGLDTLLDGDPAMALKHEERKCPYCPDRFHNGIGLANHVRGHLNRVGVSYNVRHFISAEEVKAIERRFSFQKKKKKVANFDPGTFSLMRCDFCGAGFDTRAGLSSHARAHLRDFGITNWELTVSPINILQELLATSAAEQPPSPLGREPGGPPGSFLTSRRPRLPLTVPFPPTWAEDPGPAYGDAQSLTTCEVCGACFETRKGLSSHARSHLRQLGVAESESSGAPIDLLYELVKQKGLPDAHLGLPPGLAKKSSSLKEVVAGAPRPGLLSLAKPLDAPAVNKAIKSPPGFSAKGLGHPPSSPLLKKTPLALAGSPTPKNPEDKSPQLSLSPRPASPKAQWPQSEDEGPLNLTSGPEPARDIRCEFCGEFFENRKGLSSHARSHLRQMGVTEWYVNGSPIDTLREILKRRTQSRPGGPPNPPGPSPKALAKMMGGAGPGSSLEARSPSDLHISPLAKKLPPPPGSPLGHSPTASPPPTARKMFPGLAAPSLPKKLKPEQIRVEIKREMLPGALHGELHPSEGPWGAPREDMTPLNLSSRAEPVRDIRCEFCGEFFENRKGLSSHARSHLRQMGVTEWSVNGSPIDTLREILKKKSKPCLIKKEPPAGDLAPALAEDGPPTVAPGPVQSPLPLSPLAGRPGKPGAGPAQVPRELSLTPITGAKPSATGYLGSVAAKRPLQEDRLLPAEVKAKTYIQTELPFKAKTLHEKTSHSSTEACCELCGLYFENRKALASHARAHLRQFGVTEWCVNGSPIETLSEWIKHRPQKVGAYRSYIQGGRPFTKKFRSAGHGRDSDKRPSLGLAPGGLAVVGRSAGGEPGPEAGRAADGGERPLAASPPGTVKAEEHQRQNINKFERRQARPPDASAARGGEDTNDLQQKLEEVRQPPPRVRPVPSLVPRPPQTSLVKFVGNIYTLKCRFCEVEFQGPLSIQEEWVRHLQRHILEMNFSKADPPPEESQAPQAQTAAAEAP
UniProt O94925: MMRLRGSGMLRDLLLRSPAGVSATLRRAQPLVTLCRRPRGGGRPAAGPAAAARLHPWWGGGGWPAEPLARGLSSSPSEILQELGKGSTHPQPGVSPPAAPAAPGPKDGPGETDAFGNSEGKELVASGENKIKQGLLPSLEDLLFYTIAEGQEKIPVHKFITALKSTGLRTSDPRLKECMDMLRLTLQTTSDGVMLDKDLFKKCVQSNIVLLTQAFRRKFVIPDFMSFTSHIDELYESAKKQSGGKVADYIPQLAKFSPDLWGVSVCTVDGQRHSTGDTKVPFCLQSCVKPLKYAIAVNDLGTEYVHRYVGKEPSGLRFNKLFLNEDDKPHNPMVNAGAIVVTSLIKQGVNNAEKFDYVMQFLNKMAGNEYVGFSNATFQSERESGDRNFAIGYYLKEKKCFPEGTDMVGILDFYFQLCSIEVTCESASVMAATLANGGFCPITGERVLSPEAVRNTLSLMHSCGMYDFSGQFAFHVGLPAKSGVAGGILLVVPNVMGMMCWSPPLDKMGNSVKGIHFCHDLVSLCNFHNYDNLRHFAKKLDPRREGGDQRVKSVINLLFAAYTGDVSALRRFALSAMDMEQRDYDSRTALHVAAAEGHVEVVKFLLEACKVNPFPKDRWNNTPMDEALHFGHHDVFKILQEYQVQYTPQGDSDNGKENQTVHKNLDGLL
UniProt P04818: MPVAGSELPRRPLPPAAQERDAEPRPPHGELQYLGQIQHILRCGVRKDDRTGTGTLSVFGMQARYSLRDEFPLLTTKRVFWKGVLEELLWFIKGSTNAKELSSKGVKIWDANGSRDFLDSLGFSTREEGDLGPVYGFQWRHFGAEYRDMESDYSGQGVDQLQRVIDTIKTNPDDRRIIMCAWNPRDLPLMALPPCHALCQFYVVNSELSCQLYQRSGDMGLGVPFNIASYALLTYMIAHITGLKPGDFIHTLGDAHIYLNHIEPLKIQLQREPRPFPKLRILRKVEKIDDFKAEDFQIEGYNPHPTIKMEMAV

Compound: COC(=O)/C=C/c1ccccc1 [methyl cinnamate]
Experiment: log2 ratio of iodoacetamide-alkyne labeling of the cysteine site, DMSO over compound (competition); higher = stronger covalent engagement of the cysteine by the compound, active = 1 or more
Conditions: 500 µM; treatment time 1 h; system: HEK293T cell lysate
Procedure, shortened: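 HEK293T lysate at 2 mg/mL was treated with vehicle or electrophile (500 µM) for 1 h at ambient temperature, then labelled with iodoacetamide alkyne (1 h), clicked to sCIP-TMT reagents, pooled, digested with trypsin overnight at 37 °C, enriched on streptavidin and eluted with acid. Peptides were analysed by Orbitrap Eclipse LC-MS/MS with FAIMS and quantified in FragPipe, using duplicate channels and three replicates, with cysteines quantified in only one replicate excluded. The log2 competition ratio for each cysteine is the mean control-channel reporter intensity divided by the mean compound-channel reporter intensity.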

log2 ratio of iodoacetamide-alkyne labeling, inactive:
GPX1 C202 (UniProt P07203) 0.132, GOT2 C106 (UniProt P00505) 0.398, EPRS C1497 (UniProt P07814) 0.245, KRT1 C49 (UniProt P04264) 0.00375, UniProt O94763_C443 0.154, SLC25A5 C160 (UniProt P05141) 0.138, HPRT1 C106 (UniProt P00492) 0.354, SVIL C1989 (UniProt O95425) 0.358, TOMM40 C74 (UniProt O96008) 0.184, HPRT1 C206 (UniProt P00492) 0.161, LDHA C185 (UniProt P00338) -0.0339, PCF11 C1534 (UniProt O94913) 0.266, PAK4 C276 (UniProt O96013) 0.135, ECD C557 (UniProt O95905) 0.192, PGM3 C93 (UniProt O95394) 0.0621, UniProt P07437_C127 0.0678, HSPA4L C540 (UniProt O95757) 0.354, YEATS4 C210 (UniProt O95619) 0.236, POLR1A C822 (UniProt O95602) 0.124, SMC2 C326 (UniProt O95347) 0.368, UniProt O94927_C262 -0.165, GSR C102 (UniProt P00390) 0.0491, SVIL C671 (UniProt O95425) 0.479, UniProt O96028_C1324 0.16, ENO1 C357 (UniProt P06733) 0.0601, SEC31A C173 (UniProt O94979) 0.195, HERC2 C1005 (UniProt O95714) -0.271, FGFR1OP C244 (UniProt O95684) -0.0289, PSMG1 C14 (UniProt O95456) 0.248, WIZ C1429 (UniProt O95785) -0.0151, HSPA4L C421 (UniProt O95757) 0.122, KIF20A C43 (UniProt O95235) 0.0335, GLS C525 (UniProt O94925) 0.064, EPRS C1453 (UniProt P07814) -0.0129, TYMS C195 (UniProt P04818) 0.00364, PCNT C2628 (UniProt O95613) 0.149
